Laboratory results reported in paper PMC9200584.
No constants are given. Whether binding was seen depends on the method and setting. In cells and extracts the contact can be indirect. Some entries that bind do so weakly or less than the wild type.

Sequences of proteins named here, by UniProt entry; tags and fusion partners are left off.
UniProt Q6Y1S1: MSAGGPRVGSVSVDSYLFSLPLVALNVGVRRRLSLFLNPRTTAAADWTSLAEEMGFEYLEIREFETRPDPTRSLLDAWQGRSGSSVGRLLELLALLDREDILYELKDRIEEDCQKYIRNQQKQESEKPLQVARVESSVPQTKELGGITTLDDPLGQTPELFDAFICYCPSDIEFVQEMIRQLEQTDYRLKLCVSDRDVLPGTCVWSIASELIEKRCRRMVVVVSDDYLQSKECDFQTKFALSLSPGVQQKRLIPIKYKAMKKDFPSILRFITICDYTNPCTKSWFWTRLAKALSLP

Target: T1, TLR4 (rat (endogenous in primary rat chondrocytes)) (UniProt Q9QX05)
T1 sequence: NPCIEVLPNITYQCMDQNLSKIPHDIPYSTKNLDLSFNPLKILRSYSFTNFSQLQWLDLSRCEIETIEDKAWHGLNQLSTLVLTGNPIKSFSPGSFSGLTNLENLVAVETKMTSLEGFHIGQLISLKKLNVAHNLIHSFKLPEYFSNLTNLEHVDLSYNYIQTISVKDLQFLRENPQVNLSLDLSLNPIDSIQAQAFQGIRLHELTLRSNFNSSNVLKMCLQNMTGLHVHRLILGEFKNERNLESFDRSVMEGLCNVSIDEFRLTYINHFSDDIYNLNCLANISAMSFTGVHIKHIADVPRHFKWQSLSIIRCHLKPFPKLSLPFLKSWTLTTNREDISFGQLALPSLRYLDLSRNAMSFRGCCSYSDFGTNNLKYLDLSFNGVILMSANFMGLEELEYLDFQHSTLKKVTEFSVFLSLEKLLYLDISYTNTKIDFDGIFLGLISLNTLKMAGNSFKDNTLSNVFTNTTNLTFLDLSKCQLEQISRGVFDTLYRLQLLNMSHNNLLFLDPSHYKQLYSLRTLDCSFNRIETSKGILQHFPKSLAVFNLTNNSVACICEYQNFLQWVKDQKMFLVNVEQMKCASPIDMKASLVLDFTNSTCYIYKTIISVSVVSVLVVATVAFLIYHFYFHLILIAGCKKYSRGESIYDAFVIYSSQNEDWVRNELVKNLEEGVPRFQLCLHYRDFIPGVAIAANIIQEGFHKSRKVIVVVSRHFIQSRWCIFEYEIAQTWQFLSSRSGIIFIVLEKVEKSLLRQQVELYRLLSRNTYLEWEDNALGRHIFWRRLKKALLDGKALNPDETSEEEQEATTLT
Experiment: co-IP; endogenous proteins of primary rat chondrocytes; cells pretreated or not with 200 ug/mL GBT for 1 h, then stimulated with 100 ng/mL LPS for 30 min; coimmunoprecipitation kit (Absin); TLR4-bound MyD88 detected

In the case of MyD88 (from UniProt Q6Y1S1 1-296), the binding is reported as “binds”.
